The list shows a part of the results.
What follows are sequences tested against T1, OsSMF1 (Oryza sativa, UniProt Q6ZLB0 1-436) (assay: protein-binding microarray (RPBM); PBS, 2% BSA, 51.3 ng/ul salmon testes DNA, 50 uM zinc acetate, 200 nM TF, 25 C, 1 h; high values mean tight binding). Conditions: protein: recombinant; tags: N-terminal polyhistidine and DsRed monomer fusion (pET32a); chain copies: 2; label: CyDye5-dUTP incorporated in the synthesized complementary strand; 3' TTTTT single-stranded linker to array surface; dsDNA, one strand shown.
T1 sequence: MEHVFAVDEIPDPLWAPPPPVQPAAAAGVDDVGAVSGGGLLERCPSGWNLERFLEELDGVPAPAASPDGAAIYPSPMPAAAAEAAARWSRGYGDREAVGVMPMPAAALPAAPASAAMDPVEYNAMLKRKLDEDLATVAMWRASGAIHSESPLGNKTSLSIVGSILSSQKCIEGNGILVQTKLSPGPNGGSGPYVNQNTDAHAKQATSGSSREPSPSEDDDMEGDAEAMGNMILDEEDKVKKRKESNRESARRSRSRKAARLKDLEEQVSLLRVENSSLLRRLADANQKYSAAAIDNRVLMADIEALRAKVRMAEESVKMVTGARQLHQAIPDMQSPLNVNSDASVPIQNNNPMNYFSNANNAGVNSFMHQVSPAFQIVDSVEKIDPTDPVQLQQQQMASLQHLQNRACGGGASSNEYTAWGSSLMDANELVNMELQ
How it was run: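 An Axon 4000B scanner gave the binding signal as per-feature fluorescence intensity in arbitrary units. This followed washing of a custom Agilent array that had been incubated for 1 h at 25 °C with 200 nM protein in PBS, 2% BSA, salmon testes DNA and 50 µM zinc acetate. The proteins were transcription factors fused at the N-terminus to polyhistidine and DsRed, expressed in E. coli BL21-CodonPlus and purified on Ni–NTA.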
For “ACGGCGACCACCGCCTCACCAACCCACGCAACCAATGCCACGGAGTCACCTAGTGCAG”, the binding signal was 3750 fluorescence intensity (a.u.). For “CCATGACGGCGCGCGCGGCCCAGAGGTCATCGAACCGCCCCGGAGTCACCTAGTGCAG”, the binding signal was 3730 fluorescence intensity (a.u.). “GCTATCCTACGTGGTGAGCCGTGGCCATGCTCCACGTAGGCGGAGTCACCTAGTGCAG” was tested, and the binding signal was 8960 fluorescence intensity (a.u.). With “GACGCGCACTTGCGCCACGAGAACGTGCCACGTCACGTGTCGGAGTCACCTAGTGCAG” the binding signal was 28300 fluorescence intensity (a.u.). For “CTACCGCCACGCCTTCGCCACCATCTCCATCGCACCCTTCCGGAGTCACCTAGTGCAG”, the binding signal was 3180 fluorescence intensity (a.u.). With “AAACTGGAGACGCCAACACCGTGGTCATCGACGACCTCTTCGGAGTCACCTAGTGCAG” the binding signal was 3270 fluorescence intensity (a.u.). In the case of “TTTAAAGGACTTAAATCTATTTGGTCCTCCGGGGCTGAATCGGAGTCACCTAGTGCAG”, the binding signal is reported as 3140 fluorescence intensity (a.u.). With “CGCCCGCCTGCGCGTCATCACCCTACTCCGTCGTCGCTCGCGGAGTCACCTAGTGCAG” the binding signal was 10300 fluorescence intensity (a.u.). For “TCCCGAACGAAAATCGGGGCGTTACACGTACCCATTGACACGGAGTCACCTAGTGCAG”, the binding signal was 3860 fluorescence intensity (a.u.). “CCTTGCTGTCATCTTACGTGCCCGTCCTAGCCTCTGACGACGGAGTCACCTAGTGCAG” was tested, and the binding signal was 5220 fluorescence intensity (a.u.). With “CCCACATGTCAGCCTCACTCATCATCGGGTCCCGCATCACCGGAGTCACCTAGTGCAG” the binding signal was 3500 fluorescence intensity (a.u.). For “AAAATTATTAACTTCTTGTTTCGATCACCCTAATAAATAGCGGAGTCACCTAGTGCAG”, the binding signal was 41000 fluorescence intensity (a.u.). With “TCCGATGGATCCTTTTGTTGCGTTGTTGTCAACATTGCCACGGAGTCACCTAGTGCAG” the binding signal was 4500 fluorescence intensity (a.u.). With “ACTTGCCCAACACATGAGCCTACGTGTAACATACTAGATTCGGAGTCACCTAGTGCAG” the binding signal was 4780 fluorescence intensity (a.u.). For “CTACTTTATCCAAGCCTCAGCTGATGAAGAGGTTCAGAGACGGAGTCACCTAGTGCAG”, the binding signal was 3710 fluorescence intensity (a.u.). “AACAACTCACTTGTTGACAAAGCAAGCCCTACAGGTCACTCGGAGTCACCTAGTGCAG” was tested, and the binding signal was 5780 fluorescence intensity (a.u.). For “CATGACTGCATCGATCTATTCAACAGCTATAAATCCGAGGCGGAGTCACCTAGTGCAG”, the binding signal was 3250 fluorescence intensity (a.u.). For “AAAATGGGTAATATTTCCACTTGGGGCCAAACCTGAAACACGGAGTCACCTAGTGCAG”, the binding signal was 3170 fluorescence intensity (a.u.). For “GCGTGCGTGTGCGTGTCCACCCTGATCGCCGTTGGATCTCCGGAGTCACCTAGTGCAG”, the binding signal was 4190 fluorescence intensity (a.u.). For “TGGATTCCTTCTCGCTCCCTCTCCACGTCGCCTATAAATCCGGAGTCACCTAGTGCAG”, the binding signal was 6960 fluorescence intensity (a.u.). For “AGCAGCTGACGTTCGGAAGCTACTGACTGACAAAGTTCCACGGAGTCACCTAGTGCAG”, the binding signal was 3560 fluorescence intensity (a.u.). “TGATCCTGCTGTCGAACGTGACGTGGCTGCTCTGGTCCATCGGAGTCACCTAGTGCAG” was tested, and the binding signal was 27400 fluorescence intensity (a.u.). With “GAGGTGACGAGTTTTACGACGCGCTTCTCGTTCGTCATCACGGAGTCACCTAGTGCAG” the binding signal was 4190 fluorescence intensity (a.u.). In the case of “CGTTGTTCTGCTTAGTACTGGTTGGAAAGGTGACAAAGATCGGAGTCACCTAGTGCAG”, the binding signal is reported as 3380 fluorescence intensity (a.u.). In the case of “CCTCTCCATCGCCGCATTGCTCGCCACCCCGACGACGACGCGGAGTCACCTAGTGCAG”, the binding signal is reported as 3170 fluorescence intensity (a.u.). With “ACCGCCATGTAGGTGCCACGTCATCGCCACGTGGAACGAACGGAGTCACCTAGTGCAG” the binding signal was 32700 fluorescence intensity (a.u.). In the case of “CCCCACCACCTCATCGATCCGCGCCACCACCCAACCCACCCGGAGTCACCTAGTGCAG”, the binding signal is reported as 4250 fluorescence intensity (a.u.). For “CCATACCCGTCCGTGTCACGGAGACCGCCACCGACCCCACCGGAGTCACCTAGTGCAG”, the binding signal was 3380 fluorescence intensity (a.u.). With “GAGAAAGGGTGAGGAGGAGAGAGGGTGATGACGTGGCCAGCGGAGTCACCTAGTGCAG” the binding signal was 24400 fluorescence intensity (a.u.). For “TAGCTTGGGAACTGCTAGTTGCAGTGGATCCACCTGGGCACGGAGTCACCTAGTGCAG”, the binding signal was 3580 fluorescence intensity (a.u.). With “TTTTCTGGGGTTCACATCGTTTATCATGATGACACTACCACGGAGTCACCTAGTGCAG” the binding signal was 4940 fluorescence intensity (a.u.). With “GGACATAATCCCTGCGGTTCCATAATTCTTGACGTCCTTACGGAGTCACCTAGTGCAG” the binding signal was 3400 fluorescence intensity (a.u.). For “GGAGGCTAACATGTGGGGCCCACGTGAGTCCCACGCTTACCGGAGTCACCTAGTGCAG”, the binding signal was 4070 fluorescence intensity (a.u.). “ATAGCATCCAATTAGATTGTTGACATCCGGTTGAATAGAACGGAGTCACCTAGTGCAG” was tested, and the binding signal was 3290 fluorescence intensity (a.u.). With “GGTGGAGACGCCGGAGAACAGTCAGCTTGGAGGCCGTGCGCGGAGTCACCTAGTGCAG” the binding signal was 3170 fluorescence intensity (a.u.). With “GAAGAATCGGCCCAACGACCAAGAGGGAGTCAAAATAGACCGGAGTCACCTAGTGCAG” the binding signal was 22600 fluorescence intensity (a.u.). “TGATGCTACTTGTGCAATACTGCAGTTTACACTTAAATTGCGGAGTCACCTAGTGCAG” was tested, and the binding signal was 3350 fluorescence intensity (a.u.). “CGAAAGTTATGGGCTTCAGCTTCACTGTACATTGGGTATGCGGAGTCACCTAGTGCAG” was tested, and the binding signal was 3520 fluorescence intensity (a.u.). With “GACGGCGGTGCACGTTGGCCAACGTGCCCAGACGCTTCGACGGAGTCACCTAGTGCAG” the binding signal was 3180 fluorescence intensity (a.u.). For “GCGCGGCAGTGGATGTGGTTCGCGCCGCGTGGCGGGCCATCGGAGTCACCTAGTGCAG”, the binding signal was 6120 fluorescence intensity (a.u.). With “ACCGTCGTCAGCAACGCCGCTACTGCCACTGCAATTGCCGCGGAGTCACCTAGTGCAG” the binding signal was 3540 fluorescence intensity (a.u.). For “GGAAATAGAGAAGAGGCTGACGTGGCATGCTGACATGTGGCGGAGTCACCTAGTGCAG”, the binding signal was 17300 fluorescence intensity (a.u.).
